Reference: EP4814015A1
No constants are given. Whether binding was seen depends on the method and setting. In cells and extracts the contact can be indirect. Some binding calls cover weakened binding; strength is not graded here. Tags and fused reporters may be left off the sequences shown.

Columns and labels:
[1] = target: T1, recombinant dimeric TCTP (translationally controlled tumor protein with the N-terminal 10 amino acids deleted) (Pan troglodytes (Chimpanzee)) (UniProt A5A6K2); assay: pull-down on Protein A beads (Example 2), restated
T1 sequence: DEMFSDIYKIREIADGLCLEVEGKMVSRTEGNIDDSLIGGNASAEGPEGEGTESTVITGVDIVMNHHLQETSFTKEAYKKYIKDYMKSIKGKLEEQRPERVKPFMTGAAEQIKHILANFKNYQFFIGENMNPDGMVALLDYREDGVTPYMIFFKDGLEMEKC

[2] = target: T1, recombinant dimeric TCTP (translationally controlled tumor protein with the N-terminal 10 amino acids deleted) (Pan troglodytes (Chimpanzee)); assay: pull-down on Protein A beads, Western blot (non-reducing) with anti-TCTP antibody
[3] = target: T2, recombinant monomeric TCTP (Pan troglodytes (Chimpanzee)) (UniProt A5A6K2); assay: as above
T2 sequence: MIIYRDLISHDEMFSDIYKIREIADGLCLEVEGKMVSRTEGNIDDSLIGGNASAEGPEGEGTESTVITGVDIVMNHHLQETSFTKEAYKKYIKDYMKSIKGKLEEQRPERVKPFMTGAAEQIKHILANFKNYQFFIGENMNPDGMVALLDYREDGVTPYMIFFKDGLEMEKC

Measured: binding

B1: recombinant human CD300c-Fc chimeric protein (BioLegend) (Fc fusion, not shown: a dimerising Fc or GST; small tags and cut ends)
chain: MTVAGPVGGSLSVQCRYEKEHRTLNKFWCRPPQILRCDKIVETKGSAGKRNGRVSIRDSPANLSFTVTLENLTEEDAGTYWCGVDTPWLRDFHDPIVEVEVSVFPAGTTTASSPQSSMGTSGPPTKLPVHTWPSVTRKDSPEPSPHPGSLFSNVR
binds: [1] | [2] | [3]
